Source: patent US20240218040A1
Results are given in words; binding and its absence hold for the method and conditions named. Some entries that bind do so weakly or less than the wild type. Tags and fused reporters may be left off the sequences shown.

Assays:
[1] = target: T1, recombinant human GDF-8 (human) (UniProt O14793); test: MSD platform-based assay (figure legend)
T1 sequence (looked up): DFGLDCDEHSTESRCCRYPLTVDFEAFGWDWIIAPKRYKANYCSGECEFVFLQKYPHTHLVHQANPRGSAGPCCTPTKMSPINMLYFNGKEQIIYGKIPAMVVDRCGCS

[2] = target: T1, recombinant human GDF-8 (human); test: MSD plate assay; Capture: Recombinant GDF-8, Detect: anti-Fc; 8x serial dilutions of purified protein
[3] = target: T1, recombinant human GDF-8 (human); test: MSD plate assay; GDF-8 coated, 8x serial dilutions of ACVR2B-Fc, anti-human Fc antibody and SULFO-TAG secondary

Measured: binding

B1: recombinant human ACVR2B-Fc fusion protein (Fc fusion, not shown: a dimerising Fc or GST)
chain: SGRGEAETRECIYYNANWELERTNQSGLERCEGEQDKRLHCYASWRNSSGTIELVKKGCWLDDFNCYDRQECVATEENPQVYFCCCEGNFCNERFTHLPEAGGPEVTYEPPPTAPT
binds: all assays above
